Measurements reported in PubChem BioAssay AID1224828 (NIAID, 2016)
In all, the deposit lists about 17,000 reagents; shown is a random part of them. 762 of them (4.5%) count as active. 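Active calls include both raised and lowered p65 entry, mostly lowered; wells with fewer than 50 cells lack a z-score.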 Raw values are not corrected between plates. The numbers tell different reagents against one gene apart. Reagent sequences are not shown.

Test: 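Knock-downs that increase or decrease LPS-induced p65 nuclear translocation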 (primary screen)
Cells: mouse RAW264.7 G9 macrophage reporter cells (GFP-p65, Tnf promoter-mCherry)
Reagents: siRNA pool against mouse genes, 100 nM
Duration: 2 days siRNA transfection, then 40 min LPS before fixation
Conditions: LPS (Salmonella minnesota R595) at 10 ng/ml
Measurement: 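Microscopy ratio of nuclear to perinuclear-ring GFP-p65 signal, scaled to the plate median; gene score is the average of two replicate robust z-scores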
Scale: p65 translocation robust z-score: higher = more nuclear NF-kappaB p65 after LPS than the plate median; nuclear/cytoplasmic p65 ratio: higher = more nuclear NF-kappaB p65
Hit rule: 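Called active when z exceeds 3.3 or falls under -1.56 (median of Tlr4 controls), giving activity score of at least 50; no calls for control wells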
Meaning of the calls: active = hit (p65 shift raised or lowered); inactive = no clear change

target | reagent | p65 translocation robust z-score | nuclear/cytoplasmic p65 ratio, rep 1 | nuclear/cytoplasmic p65 ratio, rep 2 | low cell count flag | outcome
Ttn (titin) | 1 | – | 1.92 | 1.42 | fewer than 50 cells per well; well left out of scoring | inactive
Ttn (titin) | 2 | – | 1.27 | 1.49 | fewer than 50 cells per well; well left out of scoring | inactive
Ccnj (cyclin J) | 1 | 0.36 | 1.5 | 1.44 | enough cells to score | inactive
Aebp2 (AE binding protein 2) | 1 | -1.02 | 1.18 | 1.55 | enough cells to score | inactive
Kdelr2 | 1 | 0.82 | 1.6 | 1.47 | enough cells to score | inactive
Panx1 (pannexin 1) | 1 | -1.41 | 1.26 | 1.23 | enough cells to score | inactive
Kctd4 (potassium channel tetramerisation domain containing 4) | 1 | -0.47 | 1.53 | 1.33 | enough cells to score | inactive
Smpx (small muscle protein, X-linked) | 1 | – | 1.68 | 1.17 | fewer than 50 cells per well; well left out of scoring | inactive
Cfdp1 (craniofacial development protein 1) | 1 | 1.09 | 1.72 | 2 | enough cells to score | inactive
Blcap (bladder cancer associated protein) | 1 | 0.34 | 1.74 | 1.6 | enough cells to score | inactive
Tnfrsf1b (tumor necrosis factor receptor superfamily, member 1b) | 1 | -0.79 | 1.4 | 1.31 | enough cells to score | inactive
Tdpoz5 (TD and POZ domain containing 5) | 1 | 0.28 | 1.39 | 1.23 | enough cells to score | inactive
Or5w12 (olfactory receptor family 5 subfamily W member 12) | 1 | -1.07 | 1.51 | 1.41 | enough cells to score | inactive
Klhl15 (kelch-like 15) | 1 | 0.5 | 1.54 | 1.57 | enough cells to score | inactive
Alpl (alkaline phosphatase, liver/bone/kidney) | 1 | -1.82 | 1.32 | 1.37 | enough cells to score | active
Lce3b (late cornified envelope 3B) | 1 | – | 1.08 | 2.98 | fewer than 50 cells per well; well left out of scoring | inactive
Tox4 (TOX high mobility group box family member 4) | 1 | 2.03 | 1.62 | 1.57 | enough cells to score | inactive
Prcc (papillary renal cell carcinoma (translocation-associated)) | 1 | 1.5 | 1.65 | 1.65 | enough cells to score | inactive
Brcc3dc (BRCA1/BRCA2-containing complex, subunit 3, domain containing) | 1 | -0.79 | 1.35 | 1.39 | enough cells to score | inactive
Poll (polymerase (DNA directed), lambda) | 1 | 0.73 | 1.53 | 1.57 | enough cells to score | inactive
Gm57858 (gene model 57858) | 1 | -0.1 | 1.46 | 1.47 | enough cells to score | inactive
Pip5k1b (phosphatidylinositol-4-phosphate 5-kinase, type 1 beta) | 1 | 0.95 | 1.66 | 1.51 | enough cells to score | inactive
Pcdhb11 (protocadherin beta 11) | 1 | – | 1.63 | 1.22 | fewer than 50 cells per well; well left out of scoring | inactive
Zmiz1 (zinc finger, MIZ-type containing 1) | 1 | -0.12 | 1.51 | 1.41 | enough cells to score | inactive
Dnpep (aspartyl aminopeptidase) | 1 | 0.07 | 1.38 | 1.38 | enough cells to score | inactive
Il22 (interleukin 22) | 1 | -0.21 | 1.41 | 1.39 | enough cells to score | inactive
Ddx17 (DEAD box helicase 17) | 1 | – | 1.36 | 1.53 | fewer than 50 cells per well; well left out of scoring | inactive
Tmc3 (transmembrane channel-like gene family 3) | 1 | 1.06 | 1.53 | 1.29 | enough cells to score | inactive
Clca3a2 (chloride channel accessory 3A2) | 1 | 0.9 | 1.61 | 2.05 | enough cells to score | inactive
Faf1 (Fas-associated factor 1) | 1 | 0.35 | 1.52 | 1.4 | enough cells to score | inactive
Casp3 (caspase 3) | 1 | 0.05 | 1.65 | 1.6 | enough cells to score | inactive
Braf (B-Raf proto-oncogene, serine/threonine kinase) | 1 | -2.14 | 1.43 | 1.05 | enough cells to score | active
Kcne2 | 1 | – | 1.23 | 1.24 | fewer than 50 cells per well; well left out of scoring | inactive
Cept1 (choline/ethanolaminephosphotransferase 1) | 1 | 1.36 | 1.75 | 2.06 | enough cells to score | inactive
Kcna10 | 1 | 1.22 | 1.61 | 1.52 | enough cells to score | inactive
Cntnap4 (contactin associated protein-like 4) | 1 | 0.71 | 1.42 | 1.89 | enough cells to score | inactive
Rfx2 (regulatory factor X, 2 (influences HLA class II expression)) | 1 | -0.27 | 1.5 | 1.46 | enough cells to score | inactive
Pmvk (phosphomevalonate kinase) | 1 | 0.84 | 1.65 | 1.48 | enough cells to score | inactive
Rybp (RING1 and YY1 binding protein) | 1 | -0.63 | 1.45 | 1.41 | enough cells to score | inactive
Baat (bile acid-Coenzyme A: amino acid N-acyltransferase) | 1 | -0.03 | 1.66 | 1.56 | enough cells to score | inactive
Or8j3b (olfactory receptor family 8 subfamily J member 3B) | 1 | 0.06 | 1.68 | 1.58 | enough cells to score | inactive
Grhpr (glyoxylate reductase/hydroxypyruvate reductase) | 1 | -0.2 | 1.43 | 1.33 | enough cells to score | inactive
Vwa5b2 (von Willebrand factor A domain containing 5B2) | 1 | 0.15 | 1.5 | 1.55 | enough cells to score | inactive
Vwa5b2 (von Willebrand factor A domain containing 5B2) | 2 | -0.43 | 1.79 | 1.36 | enough cells to score | inactive
Irx2 (Iroquois homeobox 2) | 1 | -0.15 | 1.54 | 1.4 | enough cells to score | inactive
Pigl (phosphatidylinositol glycan anchor biosynthesis, class L) | 1 | 0.91 | 1.6 | 1.32 | enough cells to score | inactive
Fus (fused in sarcoma) | 1 | -0.05 | 1.35 | 1.44 | enough cells to score | inactive
Spdye4b (speedy/RINGO cell cycle regulator family, member E4B) | 1 | – | 1.26 | 1.23 | fewer than 50 cells per well; well left out of scoring | inactive
Pmm1 (phosphomannomutase 1) | 1 | – | 1.21 | 1.31 | fewer than 50 cells per well; well left out of scoring | inactive
Or5g27 (olfactory receptor family 5 subfamily G member 27) | 1 | -0.18 | 1.36 | 1.27 | enough cells to score | inactive
Cwf19l2 (CWF19 like cell cycle control factor 2) | 1 | 1.93 | 1.83 | 2.13 | enough cells to score | inactive
Bhlha9 (basic helix-loop-helix family, member a9) | 1 | – | 1.05 | 1.21 | fewer than 50 cells per well; well left out of scoring | inactive
Dtx3 (deltex 3, E3 ubiquitin ligase) | 1 | -2.66 | 1.07 | 1.05 | enough cells to score | active
Dusp6 (dual specificity phosphatase 6) | 1 | 1.19 | 1.82 | 1.58 | enough cells to score | inactive
Znrf1 (zinc and ring finger 1) | 1 | -1.19 | 1.31 | 1.75 | enough cells to score | inactive
Fbxo43 (F-box protein 43) | 1 | -0.24 | 1.27 | 1.24 | enough cells to score | inactive
Egf (epidermal growth factor) | 1 | -0.02 | 1.44 | 1.38 | enough cells to score | inactive
Rtn1 (reticulon 1) | 1 | -2.03 | 1.12 | 0.992 | enough cells to score | active
Cyp2c54 (cytochrome P450, family 2, subfamily c, polypeptide 54) | 1 | -0.85 | 1.38 | 1.25 | enough cells to score | inactive

Quoted from the entries so far for reference:
target | reagent | p65 translocation robust z-score | nuclear/cytoplasmic p65 ratio, rep 1 | nuclear/cytoplasmic p65 ratio, rep 2 | low cell count flag | outcome
Or8j3b (olfactory receptor family 8 subfamily J member 3B) | 1 | 0.06 | 1.68 | 1.58 | enough cells to score | inactive
Grhpr (glyoxylate reductase/hydroxypyruvate reductase) | 1 | -0.2 | 1.43 | 1.33 | enough cells to score | inactive
Vwa5b2 (von Willebrand factor A domain containing 5B2) | 1 | 0.15 | 1.5 | 1.55 | enough cells to score | inactive
Vwa5b2 (von Willebrand factor A domain containing 5B2) | 2 | -0.43 | 1.79 | 1.36 | enough cells to score | inactive
Irx2 (Iroquois homeobox 2) | 1 | -0.15 | 1.54 | 1.4 | enough cells to score | inactive
Pigl (phosphatidylinositol glycan anchor biosynthesis, class L) | 1 | 0.91 | 1.6 | 1.32 | enough cells to score | inactive
Fus (fused in sarcoma) | 1 | -0.05 | 1.35 | 1.44 | enough cells to score | inactive
Spdye4b (speedy/RINGO cell cycle regulator family, member E4B) | 1 | – | 1.26 | 1.23 | fewer than 50 cells per well; well left out of scoring | inactive
Pmm1 (phosphomannomutase 1) | 1 | – | 1.21 | 1.31 | fewer than 50 cells per well; well left out of scoring | inactive
Or5g27 (olfactory receptor family 5 subfamily G member 27) | 1 | -0.18 | 1.36 | 1.27 | enough cells to score | inactive
